Reference: the supplement of paper PMC12067093, “Discovery and optimisation of a covalent ligand for TRIM25 and its application to targeted protein ubiquitination” (Chemical Science, 2025)
The other results are listed elsewhere or left out.

Sequences of proteins named here, by UniProt entry; tags and fusion partners are left off. A change or cut given only in a name is not applied to a line headed by its entry.
UniProt Q9C0K1: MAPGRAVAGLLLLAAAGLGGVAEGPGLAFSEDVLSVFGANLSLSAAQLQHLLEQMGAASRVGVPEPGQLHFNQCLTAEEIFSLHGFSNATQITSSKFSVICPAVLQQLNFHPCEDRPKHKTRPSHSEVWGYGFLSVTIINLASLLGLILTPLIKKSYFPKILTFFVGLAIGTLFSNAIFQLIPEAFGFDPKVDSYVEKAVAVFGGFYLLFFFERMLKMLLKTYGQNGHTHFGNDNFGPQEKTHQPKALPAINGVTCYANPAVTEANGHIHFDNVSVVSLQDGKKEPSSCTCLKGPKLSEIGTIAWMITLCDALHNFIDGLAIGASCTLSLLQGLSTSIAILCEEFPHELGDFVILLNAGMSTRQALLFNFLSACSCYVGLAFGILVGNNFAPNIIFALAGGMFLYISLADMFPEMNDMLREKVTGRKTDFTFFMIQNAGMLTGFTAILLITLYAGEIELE
UniProt O75643, whole entry, looked up: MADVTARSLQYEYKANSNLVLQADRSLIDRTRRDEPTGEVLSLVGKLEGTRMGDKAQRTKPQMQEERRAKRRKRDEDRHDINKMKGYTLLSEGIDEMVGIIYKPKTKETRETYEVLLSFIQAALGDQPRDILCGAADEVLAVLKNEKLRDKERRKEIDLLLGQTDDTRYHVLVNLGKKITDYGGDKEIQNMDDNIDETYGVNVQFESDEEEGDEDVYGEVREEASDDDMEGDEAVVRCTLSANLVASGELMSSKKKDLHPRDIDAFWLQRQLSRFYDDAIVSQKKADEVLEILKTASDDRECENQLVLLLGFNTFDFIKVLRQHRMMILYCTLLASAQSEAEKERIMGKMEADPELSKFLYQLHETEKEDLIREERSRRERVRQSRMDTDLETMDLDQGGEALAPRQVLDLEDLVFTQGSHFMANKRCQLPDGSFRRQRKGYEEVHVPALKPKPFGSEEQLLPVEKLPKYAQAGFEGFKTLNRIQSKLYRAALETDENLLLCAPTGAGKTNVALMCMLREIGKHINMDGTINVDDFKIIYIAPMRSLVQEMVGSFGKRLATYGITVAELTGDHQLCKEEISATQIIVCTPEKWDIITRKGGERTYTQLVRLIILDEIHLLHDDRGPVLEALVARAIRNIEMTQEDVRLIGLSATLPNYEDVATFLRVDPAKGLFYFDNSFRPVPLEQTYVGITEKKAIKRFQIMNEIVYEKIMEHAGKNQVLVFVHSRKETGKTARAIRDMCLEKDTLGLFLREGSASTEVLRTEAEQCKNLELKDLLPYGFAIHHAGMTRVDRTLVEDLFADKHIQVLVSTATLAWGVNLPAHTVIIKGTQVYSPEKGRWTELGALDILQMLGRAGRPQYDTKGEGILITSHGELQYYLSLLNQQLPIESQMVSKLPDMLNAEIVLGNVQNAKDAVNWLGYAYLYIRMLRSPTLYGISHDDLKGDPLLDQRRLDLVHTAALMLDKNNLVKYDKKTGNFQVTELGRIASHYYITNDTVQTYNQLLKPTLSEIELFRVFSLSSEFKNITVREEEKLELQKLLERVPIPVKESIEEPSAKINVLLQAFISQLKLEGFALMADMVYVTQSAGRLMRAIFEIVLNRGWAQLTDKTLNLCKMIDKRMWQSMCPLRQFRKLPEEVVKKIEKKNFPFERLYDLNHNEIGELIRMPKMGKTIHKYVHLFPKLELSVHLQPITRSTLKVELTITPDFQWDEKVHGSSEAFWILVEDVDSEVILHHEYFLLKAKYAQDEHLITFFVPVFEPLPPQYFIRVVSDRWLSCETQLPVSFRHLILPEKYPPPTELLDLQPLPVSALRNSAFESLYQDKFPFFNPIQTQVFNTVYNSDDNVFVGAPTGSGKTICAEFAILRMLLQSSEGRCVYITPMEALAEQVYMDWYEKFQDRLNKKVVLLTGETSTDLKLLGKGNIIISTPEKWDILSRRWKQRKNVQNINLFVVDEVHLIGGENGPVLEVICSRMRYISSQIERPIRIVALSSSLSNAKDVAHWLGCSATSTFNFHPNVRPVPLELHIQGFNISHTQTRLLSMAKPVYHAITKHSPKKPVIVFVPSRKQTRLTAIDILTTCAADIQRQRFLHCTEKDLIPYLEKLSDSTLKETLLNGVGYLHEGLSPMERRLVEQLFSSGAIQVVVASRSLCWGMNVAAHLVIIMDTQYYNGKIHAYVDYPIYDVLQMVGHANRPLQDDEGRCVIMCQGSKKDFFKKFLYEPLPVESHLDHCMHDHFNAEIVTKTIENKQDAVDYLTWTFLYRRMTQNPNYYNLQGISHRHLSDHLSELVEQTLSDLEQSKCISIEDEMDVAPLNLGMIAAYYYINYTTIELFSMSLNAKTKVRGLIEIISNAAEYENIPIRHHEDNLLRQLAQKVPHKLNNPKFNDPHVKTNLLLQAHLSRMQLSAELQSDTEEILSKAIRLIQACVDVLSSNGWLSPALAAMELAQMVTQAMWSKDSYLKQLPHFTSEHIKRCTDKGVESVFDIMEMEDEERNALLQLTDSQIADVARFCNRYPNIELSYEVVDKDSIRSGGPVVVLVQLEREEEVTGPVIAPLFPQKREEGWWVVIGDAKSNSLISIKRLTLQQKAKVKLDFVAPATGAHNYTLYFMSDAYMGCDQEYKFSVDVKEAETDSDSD
UniProt Q8IY92: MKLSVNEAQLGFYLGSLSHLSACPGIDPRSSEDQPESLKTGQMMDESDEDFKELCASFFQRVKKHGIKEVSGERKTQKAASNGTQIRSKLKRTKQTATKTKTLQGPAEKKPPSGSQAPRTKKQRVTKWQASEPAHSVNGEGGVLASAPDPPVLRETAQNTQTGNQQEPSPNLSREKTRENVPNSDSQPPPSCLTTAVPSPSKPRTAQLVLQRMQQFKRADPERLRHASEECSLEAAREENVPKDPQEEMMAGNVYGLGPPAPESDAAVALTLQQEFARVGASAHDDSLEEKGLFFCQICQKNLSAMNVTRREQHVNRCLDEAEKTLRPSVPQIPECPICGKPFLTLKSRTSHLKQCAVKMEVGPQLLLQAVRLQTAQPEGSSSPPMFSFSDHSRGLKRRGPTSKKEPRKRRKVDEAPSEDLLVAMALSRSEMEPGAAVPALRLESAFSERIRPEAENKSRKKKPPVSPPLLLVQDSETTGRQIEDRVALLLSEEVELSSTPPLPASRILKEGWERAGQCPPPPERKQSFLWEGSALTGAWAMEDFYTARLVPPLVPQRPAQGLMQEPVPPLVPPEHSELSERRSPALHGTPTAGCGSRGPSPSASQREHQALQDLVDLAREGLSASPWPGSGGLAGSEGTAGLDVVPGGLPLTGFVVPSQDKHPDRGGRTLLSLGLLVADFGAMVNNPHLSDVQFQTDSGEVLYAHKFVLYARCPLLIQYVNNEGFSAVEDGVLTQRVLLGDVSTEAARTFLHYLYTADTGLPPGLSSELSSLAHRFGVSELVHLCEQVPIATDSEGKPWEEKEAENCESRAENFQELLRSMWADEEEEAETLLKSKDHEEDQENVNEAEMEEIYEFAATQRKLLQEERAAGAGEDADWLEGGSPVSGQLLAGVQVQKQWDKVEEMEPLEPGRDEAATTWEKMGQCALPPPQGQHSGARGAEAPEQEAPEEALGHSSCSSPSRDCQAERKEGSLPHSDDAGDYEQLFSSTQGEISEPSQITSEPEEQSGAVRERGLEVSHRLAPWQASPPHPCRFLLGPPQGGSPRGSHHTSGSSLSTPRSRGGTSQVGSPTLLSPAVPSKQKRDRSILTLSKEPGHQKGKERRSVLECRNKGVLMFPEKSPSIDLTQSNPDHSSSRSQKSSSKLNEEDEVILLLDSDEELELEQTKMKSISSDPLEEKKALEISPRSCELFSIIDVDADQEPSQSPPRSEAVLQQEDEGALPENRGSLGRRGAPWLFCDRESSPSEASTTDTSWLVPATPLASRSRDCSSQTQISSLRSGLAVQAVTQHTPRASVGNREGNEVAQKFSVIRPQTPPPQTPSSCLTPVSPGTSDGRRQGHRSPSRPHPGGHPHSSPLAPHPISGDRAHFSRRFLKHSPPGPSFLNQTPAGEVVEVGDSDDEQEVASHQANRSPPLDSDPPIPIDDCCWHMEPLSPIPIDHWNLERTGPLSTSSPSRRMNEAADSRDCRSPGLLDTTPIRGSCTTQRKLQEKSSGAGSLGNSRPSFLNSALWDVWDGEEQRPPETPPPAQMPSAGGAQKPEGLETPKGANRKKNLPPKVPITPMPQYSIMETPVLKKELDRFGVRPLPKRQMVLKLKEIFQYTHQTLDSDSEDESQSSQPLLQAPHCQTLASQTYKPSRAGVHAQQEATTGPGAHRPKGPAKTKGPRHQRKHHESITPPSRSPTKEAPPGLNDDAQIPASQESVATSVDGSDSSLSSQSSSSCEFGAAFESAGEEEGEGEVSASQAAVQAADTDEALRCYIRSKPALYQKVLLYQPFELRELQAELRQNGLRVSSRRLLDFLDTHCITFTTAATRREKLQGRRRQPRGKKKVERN
UniProt Q9NXE4: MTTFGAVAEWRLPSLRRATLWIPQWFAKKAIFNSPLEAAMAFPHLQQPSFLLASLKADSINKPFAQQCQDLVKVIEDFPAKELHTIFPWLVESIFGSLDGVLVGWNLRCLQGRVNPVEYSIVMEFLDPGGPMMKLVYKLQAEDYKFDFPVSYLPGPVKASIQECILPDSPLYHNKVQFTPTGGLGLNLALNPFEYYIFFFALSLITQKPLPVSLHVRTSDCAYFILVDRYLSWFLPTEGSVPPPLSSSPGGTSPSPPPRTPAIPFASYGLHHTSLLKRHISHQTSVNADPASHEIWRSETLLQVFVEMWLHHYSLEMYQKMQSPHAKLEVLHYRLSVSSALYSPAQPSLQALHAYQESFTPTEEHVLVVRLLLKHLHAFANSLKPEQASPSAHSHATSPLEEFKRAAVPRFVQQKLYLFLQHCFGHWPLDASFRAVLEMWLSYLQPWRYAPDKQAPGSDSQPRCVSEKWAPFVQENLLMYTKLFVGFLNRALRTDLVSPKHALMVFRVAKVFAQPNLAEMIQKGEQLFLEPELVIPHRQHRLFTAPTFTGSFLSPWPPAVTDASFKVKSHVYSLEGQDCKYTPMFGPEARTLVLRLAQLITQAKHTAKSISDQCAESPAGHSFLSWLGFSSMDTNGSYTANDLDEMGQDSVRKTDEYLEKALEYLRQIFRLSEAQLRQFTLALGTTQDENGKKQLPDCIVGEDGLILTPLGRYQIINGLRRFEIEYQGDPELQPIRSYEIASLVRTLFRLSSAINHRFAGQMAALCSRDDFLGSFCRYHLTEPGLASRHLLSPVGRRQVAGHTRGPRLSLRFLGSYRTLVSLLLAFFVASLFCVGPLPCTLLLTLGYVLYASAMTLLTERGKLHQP
UniProt Q92925, whole entry, looked up: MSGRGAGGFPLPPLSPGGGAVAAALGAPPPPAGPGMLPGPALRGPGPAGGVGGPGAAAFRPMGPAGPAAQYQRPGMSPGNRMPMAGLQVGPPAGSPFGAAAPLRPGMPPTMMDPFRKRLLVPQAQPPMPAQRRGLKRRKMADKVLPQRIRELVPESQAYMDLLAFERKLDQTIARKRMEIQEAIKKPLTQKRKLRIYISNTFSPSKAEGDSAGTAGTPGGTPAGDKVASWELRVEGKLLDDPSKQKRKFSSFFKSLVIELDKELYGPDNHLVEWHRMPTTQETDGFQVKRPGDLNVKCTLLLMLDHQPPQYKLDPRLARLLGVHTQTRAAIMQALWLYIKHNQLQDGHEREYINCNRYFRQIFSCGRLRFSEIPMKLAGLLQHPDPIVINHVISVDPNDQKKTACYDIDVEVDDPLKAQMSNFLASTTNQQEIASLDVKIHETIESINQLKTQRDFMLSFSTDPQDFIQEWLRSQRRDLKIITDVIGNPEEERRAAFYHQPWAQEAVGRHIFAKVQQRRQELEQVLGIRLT
UniProt Q9BWU0: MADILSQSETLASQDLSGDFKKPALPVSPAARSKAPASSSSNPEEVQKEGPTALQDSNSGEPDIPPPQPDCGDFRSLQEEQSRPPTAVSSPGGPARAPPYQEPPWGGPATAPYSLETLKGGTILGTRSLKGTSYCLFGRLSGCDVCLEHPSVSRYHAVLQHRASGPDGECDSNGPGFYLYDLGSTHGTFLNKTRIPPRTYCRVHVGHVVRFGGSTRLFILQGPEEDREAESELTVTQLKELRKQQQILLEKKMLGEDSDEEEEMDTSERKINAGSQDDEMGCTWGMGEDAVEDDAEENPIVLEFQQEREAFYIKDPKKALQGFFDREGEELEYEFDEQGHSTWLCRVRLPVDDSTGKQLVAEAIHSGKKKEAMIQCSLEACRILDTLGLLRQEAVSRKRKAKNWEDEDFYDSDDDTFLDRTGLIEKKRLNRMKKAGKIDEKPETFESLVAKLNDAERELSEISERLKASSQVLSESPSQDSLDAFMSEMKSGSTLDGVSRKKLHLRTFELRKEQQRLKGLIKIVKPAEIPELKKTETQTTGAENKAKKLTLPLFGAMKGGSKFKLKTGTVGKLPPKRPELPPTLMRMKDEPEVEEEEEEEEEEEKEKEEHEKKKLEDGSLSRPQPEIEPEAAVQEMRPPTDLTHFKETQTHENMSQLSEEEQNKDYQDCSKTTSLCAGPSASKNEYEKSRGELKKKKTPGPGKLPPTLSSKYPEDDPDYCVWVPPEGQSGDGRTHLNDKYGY

compound: CC1Cc2ccccc2N1C(=O)C1CCCN(C1)C(=O)CCl (mixture of isomers) [TRIM25 ligand 11 (diastereomer mixture)]; assay: probe-labelled cysteine peptide fold change vs DMSO (competition) (log2 fold change); higher = less target engagement (more negative = stronger competition); conditions: 10 µM; THP-1; incubation time: 4 h
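Also: competitive chemoproteomic profiling in live THP-1 cells with an iodoacetamide desthiobiotin (IA-DTB) probe, comparing probe-labelled peptide intensities in compound-treated cells against DMSO-treated controls.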

Target	probe-labelled cysteine peptide fold change
SLC9A3R2_Q15599_103_QLTCTEEMAQR (UniProt Q15599)	-0.156
SMC1A_Q14683_613+619_ALQYACGNALVCDNVEDARR (UniProt Q14683)	-0.173
SMARCA4_P51532_1046_ICNHPYMFQHIEESFSEHLGFTGGIVQGLDLYR (UniProt P51532)	0.0792
SLC39A8_Q9C0K1_113_FSVICPAVLQQLNFHPCEDRPK (UniProt Q9C0K1)	0.0446
SMC3_Q9UQE7_1134_CDPAPFYLFDEIDQALDAQHR (UniProt Q9UQE7)	0.315
SMC2_O95347_630_AMEFVFGTTFVCDNMDNAK (UniProt O95347)	0.107
SLK_Q9H2G2_86_SEEELEDYMVEIDILASCDHPNIVK (UniProt Q9H2G2)	0.428
SMC3_Q9UQE7_650_AFTMDCITLEGDQVSHR (UniProt Q9UQE7)	0.0437
SLFN11_Q7Z7L1_791_YLTVEQIMTCVADTCRR (UniProt Q7Z7L1)	-0.077
SMS_P52788_337_LYCPVEFSK (UniProt P52788)	0.0474
SLC2A9_Q9NRM0_36_ALLECDHLR (UniProt Q9NRM0)	-0.0472
SNRNP200_O75643_1706_CVIMCQGSK (UniProt O75643)	0.0537
SMC1A_Q14683_523_LIDLCQPTQK (UniProt Q14683)	-0.0272
SLC7A6OS_Q96CW6_62_AAENNVFHLVATVCSQEEPVQPLLR (UniProt Q96CW6)	-0.0977
SLX4_Q8IY92_786_FGVSELVHLCEQVPIATDSEGKPWEEK (UniProt Q8IY92)	0.00222
SMG1_Q96Q15_2738_LKQEAVTVPVCEDQLK (UniProt Q96Q15)	0.072
SLC44A1_Q8WWI5_113_SVALCVAACPR (UniProt Q8WWI5)	0.0704
SMPD4_Q9NXE4_698_QLPDCIVGEDGLILTPLGR (UniProt Q9NXE4)	-0.163

Target	probe-labelled cysteine peptide fold change
SNRNP200_O75643_1115_TLNLCK (UniProt O75643)	0.00507
SMN2_Q16637_98_CSAIWSEDGCIYPATIASIDFK (UniProt Q16637)	0.0396
SNRNP200_O75643_331_MMILYCTLLASAQSEAEK (UniProt O75643)	0.218
SLC44A1_Q8WWI5_98_YVFFLDPCNLDLINR (UniProt Q8WWI5)	-0.0258
SMARCAD1_Q9H4L7_861_VLGCILSELK (UniProt Q9H4L7)	-0.0385
SMS_P52788_229_MVTMVEIDQMVIDGCKK (UniProt P52788)	-0.384
SNAP23_O00161_112_TTWGDGGENSPCNVVSK (UniProt O00161)	-0.228
SNRNP200_O75643_1127_MWQSMCPLR (UniProt O75643)	0.097
SMARCC2_Q8TAQ2_80_CFLDFK (UniProt Q8TAQ2)	-0.00468
SMU1_Q2TAY7_416_NPEHFVVCNR (UniProt Q2TAY7)	-0.00322
SMC5_Q8IY18_417_ALCEGEIIDK (UniProt Q8IY18)	-0.0881
SLFN11_Q7Z7L1_150_EAFCFLK (UniProt Q7Z7L1)	-0.0249
SLFN13_Q68D06_487_EQDAEGQDYCTR (UniProt Q68D06)	0.0571
SNRNP200_O75643_769_TEAEQCK (UniProt O75643)	0.0258
SMARCD2_Q92925_405_TACYDIDVEVDDPLK (UniProt Q92925)	-0.0479
SLC4A1AP_Q9BWU0_430_EAMIQCSLEACR (UniProt Q9BWU0)	-0.0801
SMARCC1_Q92922_520_NLTGDVCAVMR (UniProt Q92922)	0.0461
SMARCA5_O60264_1001_CNTLITLIER (UniProt O60264)	-0.0569

same assay, conditions: 50 µM; THP-1; incubation time: 4 h

Target	probe-labelled cysteine peptide fold change
SLC9A3R2_Q15599_103_QLTCTEEMAQR (UniProt Q15599)	0.169
SMC1A_Q14683_613+619_ALQYACGNALVCDNVEDARR (UniProt Q14683)	0.0553
SMARCA4_P51532_1046_ICNHPYMFQHIEESFSEHLGFTGGIVQGLDLYR (UniProt P51532)	-0.123
SLC39A8_Q9C0K1_113_FSVICPAVLQQLNFHPCEDRPK (UniProt Q9C0K1)	-0.0492
SMC3_Q9UQE7_1134_CDPAPFYLFDEIDQALDAQHR (UniProt Q9UQE7)	0.0388
SMC2_O95347_630_AMEFVFGTTFVCDNMDNAK (UniProt O95347)	-0.149
SLK_Q9H2G2_86_SEEELEDYMVEIDILASCDHPNIVK (UniProt Q9H2G2)	0.243
SMC3_Q9UQE7_650_AFTMDCITLEGDQVSHR (UniProt Q9UQE7)	0.0692
SLFN11_Q7Z7L1_791_YLTVEQIMTCVADTCRR (UniProt Q7Z7L1)	-0.171
SMS_P52788_337_LYCPVEFSK (UniProt P52788)	0.0296
SLC2A9_Q9NRM0_36_ALLECDHLR (UniProt Q9NRM0)	-0.18
SNRNP200_O75643_1706_CVIMCQGSK (UniProt O75643)	0.0778
SMC1A_Q14683_523_LIDLCQPTQK (UniProt Q14683)	-0.0144
SLC7A6OS_Q96CW6_62_AAENNVFHLVATVCSQEEPVQPLLR (UniProt Q96CW6)	-0.671
SLX4_Q8IY92_786_FGVSELVHLCEQVPIATDSEGKPWEEK (UniProt Q8IY92)	0.116
SMG1_Q96Q15_2738_LKQEAVTVPVCEDQLK (UniProt Q96Q15)	-0.0832
SLC44A1_Q8WWI5_113_SVALCVAACPR (UniProt Q8WWI5)	-0.0751
SMPD4_Q9NXE4_698_QLPDCIVGEDGLILTPLGR (UniProt Q9NXE4)	-0.18

Target	probe-labelled cysteine peptide fold change
SNRNP200_O75643_1115_TLNLCK (UniProt O75643)	0.109
SMN2_Q16637_98_CSAIWSEDGCIYPATIASIDFK (UniProt Q16637)	0.0711
SNRNP200_O75643_331_MMILYCTLLASAQSEAEK (UniProt O75643)	0.217
SLC44A1_Q8WWI5_98_YVFFLDPCNLDLINR (UniProt Q8WWI5)	0.155
SMARCAD1_Q9H4L7_861_VLGCILSELK (UniProt Q9H4L7)	0.0896
SMS_P52788_229_MVTMVEIDQMVIDGCKK (UniProt P52788)	-0.175
SNAP23_O00161_112_TTWGDGGENSPCNVVSK (UniProt O00161)	-0.329
SNRNP200_O75643_1127_MWQSMCPLR (UniProt O75643)	-0.0364
SMARCC2_Q8TAQ2_80_CFLDFK (UniProt Q8TAQ2)	0.128
SMU1_Q2TAY7_416_NPEHFVVCNR (UniProt Q2TAY7)	0.0655
SMC5_Q8IY18_417_ALCEGEIIDK (UniProt Q8IY18)	0.0517
SLFN11_Q7Z7L1_150_EAFCFLK (UniProt Q7Z7L1)	-0.268
SLFN13_Q68D06_487_EQDAEGQDYCTR (UniProt Q68D06)	0.0597
SNRNP200_O75643_769_TEAEQCK (UniProt O75643)	-0.0433
SMARCD2_Q92925_405_TACYDIDVEVDDPLK (UniProt Q92925)	-0.158
SLC4A1AP_Q9BWU0_430_EAMIQCSLEACR (UniProt Q9BWU0)	0.0527
SMARCC1_Q92922_520_NLTGDVCAVMR (UniProt Q92922)	0.0284
SMARCA5_O60264_1001_CNTLITLIER (UniProt O60264)	0.22
